For some assays here: No signal at the amounts used counts as a negative. For some assays here: Weaker means in comparison with the reference protein, sequence or condition of that experiment. For some assays here: Construct, isoform or probe ends are uncertain for at least one entry. For some assays here: At least one verdict rests on a figure or table, not on a statement of the authors.

Chains of the proteins cited; added tags and fusions are not shown. A line that says so, or that is headed by a name, gives the form on record, which may keep a tag or linker.
Tim-Tipin complex (mouse), one chain, as listed by the source, chain 1 of 2: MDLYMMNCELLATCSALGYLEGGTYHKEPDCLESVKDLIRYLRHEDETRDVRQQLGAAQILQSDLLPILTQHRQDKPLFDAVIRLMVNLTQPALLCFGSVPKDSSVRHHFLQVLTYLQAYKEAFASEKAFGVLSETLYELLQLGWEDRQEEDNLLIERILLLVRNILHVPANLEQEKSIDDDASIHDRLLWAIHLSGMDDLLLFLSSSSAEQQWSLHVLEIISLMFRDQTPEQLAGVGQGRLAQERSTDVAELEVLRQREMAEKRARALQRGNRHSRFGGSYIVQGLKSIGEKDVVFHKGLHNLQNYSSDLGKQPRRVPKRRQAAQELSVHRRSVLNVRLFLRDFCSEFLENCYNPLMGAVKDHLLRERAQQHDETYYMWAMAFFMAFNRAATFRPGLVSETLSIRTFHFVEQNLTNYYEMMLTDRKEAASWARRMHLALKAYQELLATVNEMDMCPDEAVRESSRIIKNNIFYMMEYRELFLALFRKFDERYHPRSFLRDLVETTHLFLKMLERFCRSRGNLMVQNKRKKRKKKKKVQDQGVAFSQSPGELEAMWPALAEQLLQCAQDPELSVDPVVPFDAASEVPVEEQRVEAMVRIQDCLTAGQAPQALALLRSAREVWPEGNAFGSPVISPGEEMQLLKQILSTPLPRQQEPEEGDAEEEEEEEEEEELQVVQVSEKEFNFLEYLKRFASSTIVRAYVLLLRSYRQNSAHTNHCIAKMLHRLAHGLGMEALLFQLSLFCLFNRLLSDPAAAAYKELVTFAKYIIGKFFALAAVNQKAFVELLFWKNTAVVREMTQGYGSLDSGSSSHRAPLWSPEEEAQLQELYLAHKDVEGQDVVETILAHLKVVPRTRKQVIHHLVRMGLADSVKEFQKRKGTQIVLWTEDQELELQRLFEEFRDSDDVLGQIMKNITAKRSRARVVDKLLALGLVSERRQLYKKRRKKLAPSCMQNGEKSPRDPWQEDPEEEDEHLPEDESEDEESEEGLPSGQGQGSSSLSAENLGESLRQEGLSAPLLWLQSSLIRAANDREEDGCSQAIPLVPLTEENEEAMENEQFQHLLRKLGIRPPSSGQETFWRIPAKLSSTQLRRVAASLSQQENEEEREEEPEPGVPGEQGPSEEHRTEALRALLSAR
Tim-Tipin complex (mouse), one chain, as listed by the source, chain 2 of 2: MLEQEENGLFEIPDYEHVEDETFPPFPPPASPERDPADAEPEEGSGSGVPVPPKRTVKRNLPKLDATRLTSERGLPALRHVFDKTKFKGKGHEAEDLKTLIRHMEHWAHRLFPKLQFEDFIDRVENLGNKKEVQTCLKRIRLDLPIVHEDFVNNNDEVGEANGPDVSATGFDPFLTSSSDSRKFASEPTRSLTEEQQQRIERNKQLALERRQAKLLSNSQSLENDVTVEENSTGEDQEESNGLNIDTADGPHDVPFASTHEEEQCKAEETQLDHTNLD

Data set [1] deals with Tim-Tipin complex (mouse). The data set can be described thus: SEC. The conditions noted are these: excess DNA, partial binding, 260/280 = 0.74 ± 0.01; 20 mM Hepes pH 7.5, 125 mM NaCl, 2 mM DTT, 0.01 mM zinc acetate (Buffer A); FA 15 min 30 C, 10 nM DNA; recombinant protein; protein details: His (Tim) and His-GST (Tipin), cleaved with 3C; single-stranded DNA.
Data set [2] has as its system Tim-Tipin complex + RPA full length (RPA70FL/32FL/14). The data set can be described thus: SEC. To be noted: full-length RPA, 260/280 = 1.05, similar to truncated RPA; 20 mM Hepes pH 7.5, 125 mM NaCl, 2 mM DTT, 0.01 mM zinc acetate (Buffer A); FA 15 min 30 C, 10 nM …; recombinant protein; protein details: His (Tim) and His-GST (Tipin), cleaved with 3C,His; single-stranded DNA.

Data set [3] deals with Tim-Tipin complex + RPA70/32/14 (RPA70ABC/32D-WH/14). As to the kind of experiment: SEC. To be noted: 20 mM Hepes pH 7.5, 125 mM NaCl, 2 mM DTT, 0.01 mM zinc acetate (Buffer A), FA 15 min 30 C, 10 nM DNA, recombinant protein, protein details: His (Tim) and His-GST (Tipin), cleaved with 3C,His, single-stranded DNA.
The test system is the same in data set [4]. As to the kind of experiment: EMSA. To be noted: 20 mM Hepes pH 7.5, 125 mM NaCl, 2 mM DTT, 0.01 mM zinc acetate (Buffer A), EMSA 15 min RT + 15 min 4 C, FA 15 min 30 C, 10 nM DNA, recombinant protein, protein details: His (Tim) and His-GST (Tipin), cleaved with 3C,His, label: 5'-FAM, single-stranded DNA. On the technique in general: A gel shift assay detects complexes by their altered migration in electrophoresis.

The test system of data set [5] is Tim-Tipin complex (mouse). The data set can be described thus: EMSA. To be noted: 16 uM protein, 4-64 uM DNA, less pronounced than 60 nt; 20 mM Hepes pH 7.5, 125 mM NaCl, 2 mM DTT, 0.01 mM zinc acetate (Buffer A); EMSA 15 min RT + 15 min 4 C; FA 15 min 30 C, 10 nM DNA; recombinant protein; protein details: His (Tim) and His-GST (Tipin), cleaved with 3C; label: 5'-FAM; single-stranded DNA.

The mark [6] stands for this setting: substoichiometric DNA, complex dissociates to free Tim-Tipin and RPA-DNA.

Turning to “CGGGATCCCAGCCAGCGATGTCTCAAGCTGC [31 nt ssDNA (SEC)]”, the binding result is “binds more weakly” in data set [1], “binds” in data set [2] and “no binding” in data set [3] (setting [6]). Take “ACGCTGCCGAATTCTACCAGTGCCTTGCTAGGACATCTTTGCCCACCTGCAGGTTCACCC [60 nt FAM ssDNA]”: the binding result in data set [4] (substoichiometric DNA, complex dissociates, up to 4 RPA on DNA) is reported as “no binding”. “CAGACCGCCACCGACTGCTTAGATATTTAAGTTTTCTAATTTTTCATTGAAAGCATTAAG [60 nt ssDNA (SEC)]”: the binding result in data set [3] (setting [6]) was “no binding”.

With GACGGCATCCCTAA [14 nt FAM ssDNA], the binding result in data set [4] (complex dissociates to free Tim-Tipin and RPA-DNA) is given as “no binding”. Consider AGAAGAGCCAAAAC [14 nt ssDNA (SEC)], for which, in data set [3] (complex dissociates to free Tim-Tipin and RPA-DNA at all ratios), the binding result is recorded as “no binding”.

Turning to “ACGCTGCCGAATTCTACCAGTGCCTTGCTA [30 nt FAM ssDNA]”, in data set [5], the binding result was “binds more weakly”.

(Values after article PMC4227788.)
